In the supplement of paper PMC12823440, “Inhibitors supercharge kinase turnover through native proteolytic circuits” (Nature, 2025):
Counter-ions that a name gives are not always drawn. The list shows a part of the results. The calls rarely recur for the same compound in another form.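 In K562 cells expressing nanoluciferase-fused kinases, luminescence was recorded at 4 h intervals between 2 and 18 h, normalized as percent of control with DMSO at 100% and a positive control at 0%. A significant (2 sigma) signal drop marks a time point as decreased. The authors' rule for a hit is not shown and takes in more than the number of time points.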

By UniProt entry, the sequences of proteins in these tests, tags left out. Where a name states a change or a piece, a line headed by the entry shows the natural chain unless it says otherwise.
UniProt Q06187: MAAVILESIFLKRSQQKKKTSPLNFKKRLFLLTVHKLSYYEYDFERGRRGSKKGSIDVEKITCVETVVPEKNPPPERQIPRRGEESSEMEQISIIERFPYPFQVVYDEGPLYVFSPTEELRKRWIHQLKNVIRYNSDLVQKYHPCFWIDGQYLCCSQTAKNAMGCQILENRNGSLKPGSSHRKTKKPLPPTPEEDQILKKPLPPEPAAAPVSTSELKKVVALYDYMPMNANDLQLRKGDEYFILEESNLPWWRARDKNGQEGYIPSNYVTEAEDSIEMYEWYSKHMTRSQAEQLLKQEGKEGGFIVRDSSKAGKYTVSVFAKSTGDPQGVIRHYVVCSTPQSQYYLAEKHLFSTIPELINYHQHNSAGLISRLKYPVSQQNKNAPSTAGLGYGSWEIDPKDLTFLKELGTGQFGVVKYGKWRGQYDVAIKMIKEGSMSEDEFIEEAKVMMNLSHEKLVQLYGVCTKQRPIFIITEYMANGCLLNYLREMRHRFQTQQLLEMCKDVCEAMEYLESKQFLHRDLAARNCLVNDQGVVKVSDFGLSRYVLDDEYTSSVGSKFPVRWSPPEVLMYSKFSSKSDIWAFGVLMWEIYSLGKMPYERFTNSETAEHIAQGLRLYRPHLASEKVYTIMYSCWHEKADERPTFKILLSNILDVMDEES
UniProt Q9UQM7, whole entry: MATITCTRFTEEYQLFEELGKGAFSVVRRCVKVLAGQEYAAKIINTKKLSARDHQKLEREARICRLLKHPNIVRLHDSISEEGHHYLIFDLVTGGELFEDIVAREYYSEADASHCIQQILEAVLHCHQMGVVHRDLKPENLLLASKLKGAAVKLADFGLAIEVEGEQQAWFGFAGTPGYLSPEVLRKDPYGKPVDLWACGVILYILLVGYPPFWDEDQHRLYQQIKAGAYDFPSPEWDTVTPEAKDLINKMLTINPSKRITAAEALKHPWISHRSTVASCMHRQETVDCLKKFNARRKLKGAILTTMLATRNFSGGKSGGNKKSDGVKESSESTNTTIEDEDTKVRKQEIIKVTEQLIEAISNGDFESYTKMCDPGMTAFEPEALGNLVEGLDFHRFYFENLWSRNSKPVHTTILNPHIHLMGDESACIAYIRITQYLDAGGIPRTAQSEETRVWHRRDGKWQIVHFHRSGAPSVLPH
UniProt Q13555: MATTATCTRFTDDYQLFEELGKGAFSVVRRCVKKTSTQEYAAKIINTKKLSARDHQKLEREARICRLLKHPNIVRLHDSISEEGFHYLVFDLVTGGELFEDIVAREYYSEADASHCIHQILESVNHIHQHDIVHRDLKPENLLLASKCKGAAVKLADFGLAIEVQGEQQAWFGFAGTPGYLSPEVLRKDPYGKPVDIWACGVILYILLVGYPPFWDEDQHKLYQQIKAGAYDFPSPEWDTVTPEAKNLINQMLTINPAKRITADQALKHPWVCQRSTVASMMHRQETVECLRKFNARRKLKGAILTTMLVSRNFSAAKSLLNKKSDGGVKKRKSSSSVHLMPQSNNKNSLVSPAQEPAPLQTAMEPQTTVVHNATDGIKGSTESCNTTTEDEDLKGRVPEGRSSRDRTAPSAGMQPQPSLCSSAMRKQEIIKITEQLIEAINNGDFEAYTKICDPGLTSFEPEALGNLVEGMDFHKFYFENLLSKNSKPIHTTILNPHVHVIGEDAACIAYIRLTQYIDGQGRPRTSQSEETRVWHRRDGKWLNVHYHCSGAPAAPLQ
UniProt Q15131: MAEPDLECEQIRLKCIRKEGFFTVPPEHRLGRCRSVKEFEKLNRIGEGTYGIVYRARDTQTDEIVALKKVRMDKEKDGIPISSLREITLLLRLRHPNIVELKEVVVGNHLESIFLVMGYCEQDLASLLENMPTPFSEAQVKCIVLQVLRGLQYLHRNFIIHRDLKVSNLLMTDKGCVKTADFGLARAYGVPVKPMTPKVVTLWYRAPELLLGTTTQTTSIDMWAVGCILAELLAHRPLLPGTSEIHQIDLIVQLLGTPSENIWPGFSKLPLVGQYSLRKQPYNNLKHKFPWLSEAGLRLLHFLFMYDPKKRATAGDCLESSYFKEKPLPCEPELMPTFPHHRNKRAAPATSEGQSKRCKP
UniProt Q00526: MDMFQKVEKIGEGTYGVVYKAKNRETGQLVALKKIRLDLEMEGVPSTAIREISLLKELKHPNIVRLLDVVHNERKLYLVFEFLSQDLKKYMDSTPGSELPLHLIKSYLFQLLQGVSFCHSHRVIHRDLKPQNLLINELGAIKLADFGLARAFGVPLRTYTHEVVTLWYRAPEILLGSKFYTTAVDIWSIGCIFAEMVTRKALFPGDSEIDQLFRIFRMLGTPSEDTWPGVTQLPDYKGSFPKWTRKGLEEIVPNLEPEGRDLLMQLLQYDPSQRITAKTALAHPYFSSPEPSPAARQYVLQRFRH
UniProt P11802: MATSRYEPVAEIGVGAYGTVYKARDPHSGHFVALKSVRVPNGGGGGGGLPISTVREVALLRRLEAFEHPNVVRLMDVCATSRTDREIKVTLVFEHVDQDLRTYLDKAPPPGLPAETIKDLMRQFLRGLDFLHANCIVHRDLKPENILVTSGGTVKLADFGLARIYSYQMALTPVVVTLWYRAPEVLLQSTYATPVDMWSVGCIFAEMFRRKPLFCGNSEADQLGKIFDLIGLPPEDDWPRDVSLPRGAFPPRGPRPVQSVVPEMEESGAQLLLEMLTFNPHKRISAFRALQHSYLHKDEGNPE
UniProt Q00535, whole entry, looked up: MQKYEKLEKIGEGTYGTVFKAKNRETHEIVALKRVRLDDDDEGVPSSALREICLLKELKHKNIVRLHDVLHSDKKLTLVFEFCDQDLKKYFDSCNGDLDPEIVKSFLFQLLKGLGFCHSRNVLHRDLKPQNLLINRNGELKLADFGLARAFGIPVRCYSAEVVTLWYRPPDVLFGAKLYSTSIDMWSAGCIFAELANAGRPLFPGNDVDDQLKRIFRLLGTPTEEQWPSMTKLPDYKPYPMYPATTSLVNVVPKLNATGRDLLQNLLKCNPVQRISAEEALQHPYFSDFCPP
UniProt Q00534, whole entry: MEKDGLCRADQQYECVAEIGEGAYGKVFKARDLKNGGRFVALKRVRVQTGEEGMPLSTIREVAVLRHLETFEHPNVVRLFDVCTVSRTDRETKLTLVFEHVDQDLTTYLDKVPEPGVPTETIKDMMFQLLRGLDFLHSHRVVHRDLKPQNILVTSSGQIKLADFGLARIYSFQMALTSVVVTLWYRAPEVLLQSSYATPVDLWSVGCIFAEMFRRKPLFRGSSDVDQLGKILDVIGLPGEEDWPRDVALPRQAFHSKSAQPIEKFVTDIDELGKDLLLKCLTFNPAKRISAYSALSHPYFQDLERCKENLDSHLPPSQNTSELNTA

Assays:
Test in all cases: kinase-Nluc reporter destabilization hit call (1 = scored as downregulated) (binary); higher = compound decreases kinase abundance
Settings in all cases: K562; 2-18 h
BRAF_V600E = tested on: BRAF_V600E
BTK = BTK (UniProt Q06187)
CAMK2A = CAMK2A (UniProt Q9UQM7)
CAMK2G = CAMK2G (UniProt Q13555)
CDK10 = CDK10 (UniProt Q15131)
CDK2 = CDK2 (UniProt P24941)
CDK3 = CDK3 (UniProt Q00526)
CDK4 = CDK4 (UniProt P11802)
CDK5 = CDK5 (UniProt Q00535)
CDK6 = CDK6 (UniProt Q00534)

SMILES | kinase-Nluc reporter destabilization hit call (BRAF_V600E) | kinase-Nluc reporter destabilization hit call (BTK) | kinase-Nluc reporter destabilization hit call (CAMK2A) | kinase-Nluc reporter destabilization hit call (CAMK2G) | kinase-Nluc reporter destabilization hit call (CDK10) | kinase-Nluc reporter destabilization hit call (CDK2) | kinase-Nluc reporter destabilization hit call (CDK3) | kinase-Nluc reporter destabilization hit call (CDK4) | kinase-Nluc reporter destabilization hit call (CDK5) | kinase-Nluc reporter destabilization hit call (CDK6)
COc1cccc2cc(-c3nc([C@H]4CC[C@H](C(=O)O)CC4)n4ncnc(N)c34)[nH]c12 (2.5 µM) | inactive: 0 | inactive: 0 | inactive: 0 | inactive: 0 | inactive: 0 | inactive: 0 | inactive: 0 | inactive: 0 | inactive: 0 | inactive: 0
Nc1nc2c(ncn2COCCO)c(=O)[nH]1 [Acyclovir] (10 µM) | inactive: 0 | inactive: 0 | inactive: 0 | inactive: 0 | inactive: 0 | inactive: 0 | inactive: 0 | inactive: 0 | inactive: 0 | inactive: 0
C[C@]1(O)C[C@@](N)(c2ccc(-c3nc4n(c3-c3ccccc3)COc3ccncc3-4)cc2)C1 [TAS-117 (hydrochloride)] (10 µM) | inactive: 0 | inactive: 0 | inactive: 0 | inactive: 0 | inactive: 0 | inactive: 0 | inactive: 0 | inactive: 0 | inactive: 0 | inactive: 0
C=CC(=O)Nc1cccc(Oc2nc(Nc3ccc(N4CCN(C)CC4)cc3)nc3ccsc23)c1 [Olmutinib] (2.5 µM) | inactive: 0 | inactive: 0 | inactive: 0 | inactive: 0 | inactive: 0 | inactive: 0 | inactive: 0 | inactive: 0 | inactive: 0 | inactive: 0
COc1ccc(S(=O)(=O)N(CCO)c2ccccc2CN(C)CC=Cc2ccc(Cl)cc2)cc1 (2.5 µM) | inactive: 0 | inactive: 0 | inactive: 0 | inactive: 0 | inactive: 0 | inactive: 0 | inactive: 0 | inactive: 0 | inactive: 0 | inactive: 0
Cc1ncc(F)c(Nc2n[nH]c3c2CN(C(=O)N2C[C@@H](C)N(CC4CCOCC4)C[C@@H]2C)C3(C)C)n1 (10 µM) | inactive: 0 | inactive: 0 | inactive: 0 | inactive: 0 | inactive: 0 | inactive: 0 | inactive: 0 | inactive: 0 | inactive: 0 | inactive: 0
O=C(N/N=C/c1ccc([N+](=O)[O-])o1)c1ccc(O)cc1 [Nifuroxazide] (10 µM) | inactive: 0 | inactive: 0 | inactive: 0 | inactive: 0 | inactive: 0 | inactive: 0 | inactive: 0 | inactive: 0 | inactive: 0 | inactive: 0
O=C1c2c(O)cc(O)cc2O[C@H](c2cc(O)c(O)c(O)c2)[C@H]1O [Dihydromyricetin] (10 µM) | inactive: 0 | inactive: 0 | inactive: 0 | inactive: 0 | inactive: 0 | inactive: 0 | inactive: 0 | inactive: 0 | inactive: 0 | inactive: 0
O=C(Nc1nccs1)C(c1cc(F)ccc1O)N1Cc2ccccc2C1=O (stereo not given) (10 µM) | inactive: 0 | inactive: 0 | inactive: 0 | inactive: 0 | inactive: 0 | inactive: 0 | inactive: 0 | inactive: 0 | inactive: 0 | inactive: 0
O=c1[nH]nc(Sc2ncc([N+](=O)[O-])s2)n1-c1ccc2c(c1)OCCO2 (2.5 µM) | inactive: 0 | inactive: 0 | inactive: 0 | inactive: 0 | inactive: 0 | inactive: 0 | inactive: 0 | inactive: 0 | inactive: 0 | inactive: 0
C[C@@H](Nc1cc(F)cc(F)c1)c1cc(C(=O)N(C)C)cc2c(=O)cc(N3CCOCC3)oc12 (10 µM) | inactive: 0 | inactive: 0 | inactive: 0 | inactive: 0 | inactive: 0 | inactive: 0 | inactive: 0 | inactive: 0 | inactive: 0 | inactive: 0
C=CC(=O)Nc1cccc(Oc2nc(Nc3ccc(N4CCN(C)CC4)cc3)ncc2Cl)c1 (2.5 µM) | inactive: 0 | inactive: 0 | inactive: 0 | inactive: 0 | inactive: 0 | inactive: 0 | inactive: 0 | inactive: 0 | inactive: 0 | inactive: 0
Cc1cccc(Cn2nc(C)c3c(NC(=O)c4csc5c(N)ncnc45)cccc32)n1 (10 µM) | inactive: 0 | inactive: 0 | inactive: 0 | inactive: 0 | inactive: 0 | inactive: 0 | inactive: 0 | inactive: 0 | inactive: 0 | inactive: 0
C=CC(=O)N1CCN(c2nc(OC[C@@H]3CCCN3C)nc3c2CCN(c2cccc4cccc(C)c24)C3)C[C@@H]1CC#N (2.5 µM) | inactive: 0 | inactive: 0 | inactive: 0 | inactive: 0 | inactive: 0 | inactive: 0 | inactive: 0 | inactive: 0 | inactive: 0 | inactive: 0
C[C@@H]1CN(Cc2cn[nH]c2-c2ccc(C#N)cc2)CCN1c1ccc(C(F)(F)F)cn1 (2.5 µM) | inactive: 0 | inactive: 0 | inactive: 0 | inactive: 0 | inactive: 0 | inactive: 0 | inactive: 0 | inactive: 0 | inactive: 0 | inactive: 0
CN1CCN(c2ccc(NC(=O)c3ccc(C#N)o3)c(N3CCCCC3)c2)CC1 (10 µM) | inactive: 0 | inactive: 0 | inactive: 0 | inactive: 0 | inactive: 0 | inactive: 0 | inactive: 0 | inactive: 0 | inactive: 0 | inactive: 0
CCOc1cc(C(=O)N2CCC(N3CCN(C)CC3)CC2)ccc1Nc1ncc2c(n1)N(S(C)(=O)=O)c1ccccc1C(=O)N2C (10 µM) | inactive: 0 | inactive: 0 | inactive: 0 | inactive: 0 | inactive: 0 | inactive: 0 | inactive: 0 | inactive: 0 | inactive: 0 | inactive: 0
O=C(CC(c1ccccc1)C(C(=O)O)C(=O)O)c1ccc(C(F)(F)F)cc1 (stereo not given) (10 µM) | inactive: 0 | inactive: 0 | inactive: 0 | inactive: 0 | inactive: 0 | inactive: 0 | inactive: 0 | inactive: 0 | inactive: 0 | inactive: 0
CC(=O)c1cc(O)ccc1O [2,5-Dihydroxyacetophenone] (10 µM) | inactive: 0 | inactive: 0 | inactive: 0 | inactive: 0 | inactive: 0 | inactive: 0 | inactive: 0 | inactive: 0 | inactive: 0 | inactive: 0
COc1c(OCCCN2CCOCC2)ccc2c3n(c(=NC(=O)c4cnc(N)nc4)nc12)CCN3 [Copanlisib (dihydrochloride)] (10 µM) | inactive: 0 | inactive: 0 | inactive: 0 | inactive: 0 | inactive: 0 | inactive: 0 | inactive: 0 | inactive: 0 | inactive: 0 | inactive: 0
CCn1c2ccccc2c2cc(Nc3ccnc(NCCCN4CCOCC4)n3)ccc21 (2.5 µM) | inactive: 0 | inactive: 0 | inactive: 0 | inactive: 0 | inactive: 0 | inactive: 0 | inactive: 0 | inactive: 0 | inactive: 0 | inactive: 0
Cc1ccc(-c2csc(Cn3nc(CC4OCCCO4)c4ccccc4c3=O)n2)cc1 (10 µM) | inactive: 0 | inactive: 0 | inactive: 0 | inactive: 0 | inactive: 0 | inactive: 0 | inactive: 0 | inactive: 0 | inactive: 0 | inactive: 0
C=CC(=O)Nc1cc(C(=O)NC)cc(-c2n[nH]c3ccccc23)c1 (10 µM) | active: 1 | inactive: 0 | inactive: 0 | inactive: 0 | inactive: 0 | inactive: 0 | inactive: 0 | inactive: 0 | inactive: 0 | inactive: 0
COC(=O)[C@]1(C)CC[C@]2(C(=O)O[C@@H]3O[C@H](CO)[C@@H](O)[C@H](O)[C@H]3O)CC[C@]3(C)C(=CC[C@@H]4[C@@]5(C)C[C@H](O)[C@H](O[C@@H]6OC[C@@H](O[C@@H]7O[C@H](CO)[C@@H](O)[C@H](O)[C@H]7O)[C@H](O)[C@H]6O)[C@@](C)(CO)C5CC[C@]43C)[C@H]2C1 (stereo not given in full) [Esculentoside H] (10 µM) | inactive: 0 | inactive: 0 | inactive: 0 | inactive: 0 | inactive: 0 | inactive: 0 | inactive: 0 | inactive: 0 | inactive: 0 | inactive: 0
CC(C)(O)c1cc2nc(-c3cnc(N)nc3)nc(N3CCOCC3)c2s1 (2.5 µM) | inactive: 0 | inactive: 0 | inactive: 0 | inactive: 0 | inactive: 0 | inactive: 0 | inactive: 0 | inactive: 0 | inactive: 0 | inactive: 0
CC(C)(O)c1cc(Nc2cc(Oc3cn(C4CC4)nc3C3CCOCC3)ccn2)ccn1 (10 µM) | inactive: 0 | inactive: 0 | inactive: 0 | inactive: 0 | inactive: 0 | inactive: 0 | inactive: 0 | inactive: 0 | inactive: 0 | inactive: 0
COC(=O)/C=C/c1ccc(O)c(OC)c1 [Ferulic acid methyl ester] (10 µM) | inactive: 0 | inactive: 0 | inactive: 0 | inactive: 0 | inactive: 0 | inactive: 0 | inactive: 0 | inactive: 0 | inactive: 0 | inactive: 0
Cn1cc(-c2ccc3ncc(Cc4ccc5ncccc5c4)n3n2)cn1 (10 µM) | inactive: 0 | inactive: 0 | inactive: 0 | inactive: 0 | inactive: 0 | inactive: 0 | inactive: 0 | inactive: 0 | inactive: 0 | inactive: 0
CNC(=O)c1c(C)oc2cc(Oc3ncnc4cc(OC)c(OC)cc34)ccc12 [Fruquintinib] (10 µM) | inactive: 0 | inactive: 0 | inactive: 0 | inactive: 0 | inactive: 0 | inactive: 0 | inactive: 0 | inactive: 0 | inactive: 0 | inactive: 0

Fetched one by one from the list above, 2 records:
SMILES | kinase-Nluc reporter destabilization hit call (BRAF_V600E) | kinase-Nluc reporter destabilization hit call (BTK) | kinase-Nluc reporter destabilization hit call (CAMK2A) | kinase-Nluc reporter destabilization hit call (CAMK2G) | kinase-Nluc reporter destabilization hit call (CDK10) | kinase-Nluc reporter destabilization hit call (CDK2) | kinase-Nluc reporter destabilization hit call (CDK3) | kinase-Nluc reporter destabilization hit call (CDK4) | kinase-Nluc reporter destabilization hit call (CDK5) | kinase-Nluc reporter destabilization hit call (CDK6)
COc1ccc(S(=O)(=O)N(CCO)c2ccccc2CN(C)CC=Cc2ccc(Cl)cc2)cc1 (2.5 µM) | inactive: 0 | inactive: 0 | inactive: 0 | inactive: 0 | inactive: 0 | inactive: 0 | inactive: 0 | inactive: 0 | inactive: 0 | inactive: 0
Cc1ncc(F)c(Nc2n[nH]c3c2CN(C(=O)N2C[C@@H](C)N(CC4CCOCC4)C[C@@H]2C)C3(C)C)n1 (10 µM) | inactive: 0 | inactive: 0 | inactive: 0 | inactive: 0 | inactive: 0 | inactive: 0 | inactive: 0 | inactive: 0 | inactive: 0 | inactive: 0
